US20240060138A1, “BREAST CANCER-RESPONSE PREDICTION SUBTYPES” (The Regents of The University of California, priority 2022, published 2024)
Some of these results come from one statement about several compounds together.

System: HER2-negative BC
Experiment: I-SPY2 IO arms: pCR rate by ImPrint immune classifier status
Type: in vivo, patients

Substance | pCR rate (HR+) [%] | pCR rate (TN) [%]
Durvalumab/Olaparib | > 90 | 
Cemiplimab |  | > 81
